# Experimental data reported in article PMC5996148.
# Where “and” joins values, the source holds several entries; their conditions need not be identical. Equal values may be shown once. The list shows a part of the results. For some assays here: Construct or isoform of the protein are uncertain.
# Tests used:
# Assay in all cases: protein microarray (ProtoArray v5.0), streptavidin-Alexa Fluor 647
# Conditions in all cases: 3'-biotin; 20 mM Tris (pH 7.5), 5 mM MgCl2, 100 mM KCl, 0.1% Tween-20, A/T-rich and random oligonucleotide blockers; temperature not stated; high values mean tight binding
# C9orf46 (human) = test system: C9orf46 (human)
# C9orf71 (human) = test system: C9orf71 (human)
# C9orf95 (human) = test system: C9orf95 (human)
# CA2 (human) = test system: CA2 (human)
# CA9 = CA9 (UniProt Q16790)
# CACNG1 (human) = test system: CACNG1 (human)
# CACYBP = CACYBP (UniProt Q9HB71)
# CALB1 (human) = test system: CALB1 (human)
# CALM2 (human) = test system: CALM2 (human)
# CALM3 = CALM3 (UniProt P0DP25)
# CAMK1D (human) = test system: CAMK1D (human)
# CAMK4 (human) = test system: CAMK4 (human)
# CANT1 (human) = test system: CANT1 (human)
# CAPNS2 (human) = test system: CAPNS2 (human)
# CAPS (human) = test system: CAPS (human)
# CAPZA2 (human) = test system: CAPZA2 (human)
# CAT (human) = test system: CAT (human)
# CBS (human) = test system: CBS (human)
# CBX5 = CBX5 (UniProt P45973)
# CCDC107 (human) = test system: CCDC107 (human)
sequence,measurement,setting,value
GGGGACAGGGGTATGGGGAGGGG [G4-3 biotinylated (CtG)],binding signal,C9orf46 (human),-0.309 z-score
same,binding signal,C9orf71 (human),-0.324 z-score
same,binding signal,C9orf95 (human),-0.329 z-score
same,binding signal,CA2 (human),-0.324 z-score
same,binding signal,CA9,-0.341 z-score
same,binding signal,CACNG1 (human),-0.313 z-score
same,binding signal,CACYBP,3.85 z-score
same,binding signal,CALB1 (human),-0.326 z-score
same,binding signal,CALM2 (human),-0.331 z-score
same,binding signal,CALM3,-0.336 z-score
same,binding signal,CAMK1D (human),-0.334 z-score and -0.333 z-score
same,binding signal,CAMK4 (human),-0.331 z-score
same,binding signal,CANT1 (human),-0.324 z-score
same,binding signal,CAPNS2 (human),-0.32 z-score
same,binding signal,CAPS (human),-0.335 z-score and -0.343 z-score
same,binding signal,CAPZA2 (human),-0.322 z-score
same,binding signal,CAT (human),-0.338 z-score
same,binding signal,CBS (human),-0.331 z-score
same,binding signal,CBX5,3.91 z-score
same,binding signal,CCDC107 (human),-0.316 z-score

# Reformatted with tabs: part of the list above
sequence	measurement	setting	value
GGGGACAGGGGTATGGGGAGGGG [G4-3 biotinylated (CtG)]	binding signal	CA9	-0.341 z-score
same	binding signal	CALB1 (human)	-0.326 z-score
same	binding signal	CANT1 (human)	-0.324 z-score
same	binding signal	CAPS (human)	-0.335 z-score and -0.343 z-score
same	binding signal	CCDC107 (human)	-0.316 z-score
